In US10351827B2, “Method for differentiating induced pluripotent stem cells into renal proximal tubular cell-like cells” (priority 2013, dated 2019):
At least one compound was matched to its structure with a doubt left. Some of these results come from one statement about several compounds together.

What was measured:
[1] = target: T1, OCT2 in iPS IMR90-4-derived d8 cells (Homo sapiens, UniProt O15244); test: OCT2 activity: uptake of fluorescent substrate ASP+ with OCT2 inhibitor, FACS; assay type: cell-based; details: 50 μm inhibitor, 25 μm ASP+, 30 minutes, vs vehicle control
T1 construct: iPS(Foreskin)-4- and iPS IMR90-4-derived d8 cells were incubated with vehicle (DMSO)-containing cell culture medium; endogenous in cells; host or cells: iPS IMR90-4-derived d8 cells (hiPSC line from WiCell)
T1 sequence (O15244 1-555): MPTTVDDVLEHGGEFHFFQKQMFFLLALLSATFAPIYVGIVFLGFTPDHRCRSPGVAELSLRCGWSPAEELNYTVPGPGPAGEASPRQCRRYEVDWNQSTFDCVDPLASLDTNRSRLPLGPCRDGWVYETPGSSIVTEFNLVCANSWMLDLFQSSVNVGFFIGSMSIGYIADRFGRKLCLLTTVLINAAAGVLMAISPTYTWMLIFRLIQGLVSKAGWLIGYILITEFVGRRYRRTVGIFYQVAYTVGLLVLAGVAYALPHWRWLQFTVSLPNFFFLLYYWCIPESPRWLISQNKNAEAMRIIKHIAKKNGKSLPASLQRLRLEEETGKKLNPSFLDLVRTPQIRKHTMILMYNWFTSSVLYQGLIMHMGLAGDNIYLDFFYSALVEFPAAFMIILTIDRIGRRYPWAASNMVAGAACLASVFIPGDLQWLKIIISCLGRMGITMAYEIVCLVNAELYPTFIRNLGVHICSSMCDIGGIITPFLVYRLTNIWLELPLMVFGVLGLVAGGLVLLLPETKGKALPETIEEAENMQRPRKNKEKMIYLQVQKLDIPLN

[2] = target: T2, OCT2 in iPS(Foreskin)-4-derived d8 cells (Homo sapiens, UniProt O15244); test: as above; assay type: cell-based; details: 50 μm inhibitor, 25 μm ASP+
T2 construct: the organic cation uptake transporter OCT2 was active in iPS(Foreskin)-4-derived d8 cells; endogenous in cells; host or cells: iPS(Foreskin)-4-derived d8 HPTC-like cells (hiPSC line from WiCell)
T2 sequence (O15244 1-555): T1 sequence (O15244 1-555)

[3] = test system: PTC in humans; details: grouping of the 30 test compounds; cited from earlier work

Structure (SMILES)	nephrotoxicity / toxicity for PTC in humans [3]	also measured
CCCCC[N+](CCCCC)(CCCCC)CCCCC [tetrapentylammonium]		cellular fluorescence intensity (uptake of fluorescent OCT2 substrate ASP+) [1]: no difference between OCT2 inhibitor-treated samples and vehicle controls; cellular fluorescence intensity (uptake of fluorescent OCT2 substrate ASP+) ([2]; 30 minutes, vs vehicle control): decreased fluorescence intensity; MDR activity factor (MAF) value ([2]; MAF >25 considered positive for transporter activity): > 25
[Cl][Cd][Cl] [Cadmium chloride]	directly toxic for PTC	
O=[As]O[As]=O (stereo not drawn) [Arsenic (III) oxide]	directly toxic for PTC	
[Cl][Cu][Cl] [Copper (II) chloride]	directly toxic for PTC	
COc1cccc2c1cc([N+](=O)[O-])c1c(C(=O)O)cc3c(c12)OCO3 [Aristolochic acid]	directly toxic for PTC	
CN[C@H](CC(C)C)C(=O)N[C@H]1C(=O)N[C@@H](CC(N)=O)C(=O)N[C@H]2C(=O)N[C@H]3C(=O)N[C@H](C(=O)N[C@H](C(=O)O)c4cc(O)cc(O)c4-c4cc3ccc4O)[C@H](O)c3ccc(c(Cl)c3)Oc3cc2cc(c3O[C@@H]2O[C@H](CO)[C@@H](O)[C@H](O)[C@H]2O[C@H]2C[C@](C)(N)[C@H](O)[C@H](C)O2)Oc2ccc(cc2Cl)[C@H]1O [Vancomycin]	nephrotoxicants that do not damage PTC directly	
[Cl][Au] [Gold (I) chloride]	directly toxic for PTC	
